Binding data for one substance are collected here from publication PMC12501252.

For assay [1], the target named is T1, CHCHD3 (mouse) (mouse (endogenous in mouse tissues)) (UniProt Q9CRB9).
T1 sequence: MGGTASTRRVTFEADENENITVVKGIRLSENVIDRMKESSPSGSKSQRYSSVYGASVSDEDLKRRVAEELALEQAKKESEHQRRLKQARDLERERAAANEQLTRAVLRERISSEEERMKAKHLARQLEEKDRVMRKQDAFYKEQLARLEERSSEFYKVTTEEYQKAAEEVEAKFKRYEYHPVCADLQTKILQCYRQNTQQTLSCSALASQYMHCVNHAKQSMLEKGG
Nature of the assay: native gel or EMSA; two-dimensional BN-PAGE/SDS-PAGE with Western blot; mitochondria from brain, heart and skeletal muscle of Chchd2+/+ and Chchd2-/- mice, and from heart, skeletal muscle and liver of mouse models of mitochondrial dysfunction (RNaseH1, Tfam, Tefm knockouts, IMT treatment) and controls; solubilised in 1% DDM or 1% digitonin.

Assay [2] deals with T2, CHCHD2 (mouse) (mouse (endogenous in mouse tissues)) (UniProt Q9D1L0).
T2 sequence: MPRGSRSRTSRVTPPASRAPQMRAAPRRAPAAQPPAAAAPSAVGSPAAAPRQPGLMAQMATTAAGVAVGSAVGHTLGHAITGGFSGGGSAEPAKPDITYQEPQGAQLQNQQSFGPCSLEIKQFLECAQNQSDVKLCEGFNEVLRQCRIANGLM
The assay is described as above.

No constants are given. Whether binding was seen depends on the method and setting. For some assays here: Binding calls can cover weak binding; strength is not graded here.

As for CHCHD10 (mouse), the binding result in assay [1] is given as “no binding”; in assay [2] it was “binds”.
